# For at least one entry, the source does not settle the construct or the ends of the probe. The comparison behind a weaker result is the experiment's own reference, which may not be listed here. Protein sequences can lack the tags named with them.
# Target: T1, RecD2 (His-tagged) (Bacillus subtilis) (UniProt O34481)
# T1 sequence (looked up, limits assumed): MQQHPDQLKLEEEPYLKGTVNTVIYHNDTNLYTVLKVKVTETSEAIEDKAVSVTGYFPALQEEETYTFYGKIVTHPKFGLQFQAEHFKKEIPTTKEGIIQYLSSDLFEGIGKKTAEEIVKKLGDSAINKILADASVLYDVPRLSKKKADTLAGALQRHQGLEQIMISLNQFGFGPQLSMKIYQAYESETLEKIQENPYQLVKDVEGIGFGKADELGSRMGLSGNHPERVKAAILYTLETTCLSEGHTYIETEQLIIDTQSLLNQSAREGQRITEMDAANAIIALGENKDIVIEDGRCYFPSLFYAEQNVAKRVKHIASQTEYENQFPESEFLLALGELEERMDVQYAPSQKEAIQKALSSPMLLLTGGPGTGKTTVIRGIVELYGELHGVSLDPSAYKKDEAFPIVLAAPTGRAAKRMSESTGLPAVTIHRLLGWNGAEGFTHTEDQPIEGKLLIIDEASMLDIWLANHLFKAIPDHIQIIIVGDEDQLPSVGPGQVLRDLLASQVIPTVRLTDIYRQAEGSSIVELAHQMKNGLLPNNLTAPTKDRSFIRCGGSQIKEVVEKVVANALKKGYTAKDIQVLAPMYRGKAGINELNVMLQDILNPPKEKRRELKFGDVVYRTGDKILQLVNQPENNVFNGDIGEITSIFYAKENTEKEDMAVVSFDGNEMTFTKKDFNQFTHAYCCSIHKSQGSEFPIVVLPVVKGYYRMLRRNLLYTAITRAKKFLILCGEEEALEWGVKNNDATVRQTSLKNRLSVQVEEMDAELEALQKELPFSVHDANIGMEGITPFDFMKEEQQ
# Assay: EMSA
# Conditions: 2 mM MgCl2 (or 10 mM), 15 min 37 C, then 0.05% glutaraldehyde 15 min 37 C, 8% PAGE, recombinant protein, protein details: 6xHis (not removed), label: 32P
# [1] = 2 mM MgCl2, 1 mM ATPgS, weaker than fork 30-30, similar to tailed duplexes, EMSA: 0.25 nM 32P-DNA
# [2] = 2 mM MgCl2, 1 mM ATPgS, value given for dT40-80, EMSA: 0.25 nM 32P-DNA, single-stranded DNA
sequence,measurement,setting,value
ACGGCCTAGAACGGCCTAGAACGGCCTAGATCGTGAACCTGCAGGTAAGGGGCTGCTCATCGTAGGTTAGCGTAAATTAG [80-nt random ssDNA (17-M-80)],binding result,"no ATPgS, EMSA: 0.25 nM 32P-DNA, 1 mM ATPgS, single-stranded DNA",binds more weakly
ACGGCCTAGATCGTGAACCTGCAGGTAAGGGGCTGCTCATCGTAGGTTAGCGTAAATTAG / GTGCCTTGCTAGGACATCAGTCGTAGGATACCTTACCTGCAGGTTCACGATCTAGGCCGT / CTAATTTACGCTAACCTACGATGAGCAGCC [5'-tailed replicated fork],binding result,[1],binds more weakly
ACGGCCTAGATCGTGAACCTGCAGGTAAGGGGCTGCTCATCGTAGGTTAGCGTAAATTAG / GTGCCTTGCTAGGACATCAGTCGTAGGATACCTTACCTGCAGGTTCACGATCTAGGCCGT / TATCCTACGACTGATGTCCTAGCAAGGCAC [3'-tailed replicated fork],binding result,[1],binds more weakly
ACGGCCTAGATCGTGAACCTGCAGGTAAGGGGCTGCTCATCGTAGGTTAGCGTAAATTAG / GTGCCTTGCTAGGACATCAGTCGTAGGATACCTTACCTGCAGGTTCACGATCTAGGCCGT [fork 30-30],half-maximal binding,"2 mM MgCl2, 1 mM ATPgS, EMSA: 0.25 nM 32P-DNA",2 nM
TTTTTTTTTTTTTTTTTTTT [poly(dT)20],half-maximal binding,"2 mM MgCl2, 1 mM ATPgS, affinity stated as low, EMSA: 0.25 nM 32P-DNA, single-stranded DNA",> 50 nM
TTTTTTTTTTTTTTTTTTTTTTTTTTTTTTTTTTTTTTTT [poly(dT)40],half-maximal binding,[2],3 nM
TTTTTTTTTTTTTTTTTTTTTTTTTTTTTTTTTTTTTTTTTTTTTTTTTTTTTTTTTTTT [poly(dT)60],half-maximal binding,"2 mM MgCl2, 1 mM ATPgS, value given for dT40-80, three complexes, EMSA: 0.25 nM 32P-DNA, single-stranded DNA",3 nM
TTTTTTTTTTTTTTTTTTTTTTTTTTTTTTTTTTTTTTTTTTTTTTTTTTTTTTTTTTTTTTTTTTTTTTTTTTTTTTTT [poly(dT)80],half-maximal binding,[2],3 nM
